Assay results as given in article PMC10994853.

Amino acid sequences for entries named in this document (tags omitted). A change or cut given only in a name is not applied to a line headed by its entry.
UniProt Q5I6C7: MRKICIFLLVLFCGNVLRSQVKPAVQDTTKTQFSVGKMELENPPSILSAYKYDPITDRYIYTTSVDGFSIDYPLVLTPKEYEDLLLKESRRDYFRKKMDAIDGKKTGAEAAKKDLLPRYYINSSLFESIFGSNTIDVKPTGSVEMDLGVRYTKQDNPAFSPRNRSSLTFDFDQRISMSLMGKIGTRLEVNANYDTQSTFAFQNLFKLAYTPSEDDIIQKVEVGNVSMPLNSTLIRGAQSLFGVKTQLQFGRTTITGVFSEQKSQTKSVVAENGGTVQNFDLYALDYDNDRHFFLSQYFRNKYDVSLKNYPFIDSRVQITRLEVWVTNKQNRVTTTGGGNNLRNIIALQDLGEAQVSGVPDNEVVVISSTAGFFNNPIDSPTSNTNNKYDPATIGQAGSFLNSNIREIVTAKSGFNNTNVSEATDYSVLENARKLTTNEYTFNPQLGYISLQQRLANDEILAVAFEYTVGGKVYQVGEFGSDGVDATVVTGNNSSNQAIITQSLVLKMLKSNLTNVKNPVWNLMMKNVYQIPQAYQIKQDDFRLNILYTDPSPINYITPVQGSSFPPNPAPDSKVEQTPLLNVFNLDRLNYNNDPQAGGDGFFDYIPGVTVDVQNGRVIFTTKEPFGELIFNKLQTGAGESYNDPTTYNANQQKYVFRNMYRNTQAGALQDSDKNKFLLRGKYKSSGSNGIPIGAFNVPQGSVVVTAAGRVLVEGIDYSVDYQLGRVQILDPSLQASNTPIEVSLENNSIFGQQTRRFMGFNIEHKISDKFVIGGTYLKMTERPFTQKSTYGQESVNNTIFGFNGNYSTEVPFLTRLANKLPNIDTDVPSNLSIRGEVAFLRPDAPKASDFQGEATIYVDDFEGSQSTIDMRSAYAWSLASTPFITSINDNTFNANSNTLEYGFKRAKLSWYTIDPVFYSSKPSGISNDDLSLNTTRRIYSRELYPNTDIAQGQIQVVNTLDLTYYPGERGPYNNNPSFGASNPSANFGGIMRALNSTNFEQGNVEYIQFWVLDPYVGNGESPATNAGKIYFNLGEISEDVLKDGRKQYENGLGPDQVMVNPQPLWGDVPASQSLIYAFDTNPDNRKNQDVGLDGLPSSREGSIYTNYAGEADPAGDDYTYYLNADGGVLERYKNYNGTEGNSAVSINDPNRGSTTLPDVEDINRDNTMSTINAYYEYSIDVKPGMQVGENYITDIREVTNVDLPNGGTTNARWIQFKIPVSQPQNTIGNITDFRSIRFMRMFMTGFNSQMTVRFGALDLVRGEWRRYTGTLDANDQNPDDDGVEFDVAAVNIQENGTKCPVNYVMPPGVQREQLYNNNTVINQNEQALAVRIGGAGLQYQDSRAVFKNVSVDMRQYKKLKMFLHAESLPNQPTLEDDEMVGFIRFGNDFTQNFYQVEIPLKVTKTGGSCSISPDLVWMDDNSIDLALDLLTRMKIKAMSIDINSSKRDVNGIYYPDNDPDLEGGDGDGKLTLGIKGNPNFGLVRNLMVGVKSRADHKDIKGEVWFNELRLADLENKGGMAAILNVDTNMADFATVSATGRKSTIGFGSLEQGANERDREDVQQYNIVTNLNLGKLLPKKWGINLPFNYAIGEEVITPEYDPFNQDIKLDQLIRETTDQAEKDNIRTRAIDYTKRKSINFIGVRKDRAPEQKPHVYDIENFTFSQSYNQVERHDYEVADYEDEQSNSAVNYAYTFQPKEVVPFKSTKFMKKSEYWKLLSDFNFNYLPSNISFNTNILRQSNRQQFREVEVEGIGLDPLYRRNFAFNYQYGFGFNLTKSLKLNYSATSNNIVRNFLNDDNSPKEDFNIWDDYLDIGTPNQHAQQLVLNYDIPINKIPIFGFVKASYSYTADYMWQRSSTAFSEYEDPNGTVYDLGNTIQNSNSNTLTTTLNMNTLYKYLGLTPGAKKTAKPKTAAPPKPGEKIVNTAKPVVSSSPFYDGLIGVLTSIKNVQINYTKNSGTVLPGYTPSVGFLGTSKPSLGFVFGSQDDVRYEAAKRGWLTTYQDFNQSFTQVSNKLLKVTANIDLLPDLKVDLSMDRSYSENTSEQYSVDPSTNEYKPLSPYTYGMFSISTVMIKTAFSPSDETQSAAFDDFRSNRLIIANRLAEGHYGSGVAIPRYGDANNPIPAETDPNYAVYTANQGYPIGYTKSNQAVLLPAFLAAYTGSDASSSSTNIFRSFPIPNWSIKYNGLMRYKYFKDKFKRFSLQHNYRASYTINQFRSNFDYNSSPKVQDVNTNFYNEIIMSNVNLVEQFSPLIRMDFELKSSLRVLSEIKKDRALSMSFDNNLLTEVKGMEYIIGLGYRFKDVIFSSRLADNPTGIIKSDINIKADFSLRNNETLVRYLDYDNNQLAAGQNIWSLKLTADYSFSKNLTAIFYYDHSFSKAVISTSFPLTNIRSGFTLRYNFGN
UniProt A5FAQ0: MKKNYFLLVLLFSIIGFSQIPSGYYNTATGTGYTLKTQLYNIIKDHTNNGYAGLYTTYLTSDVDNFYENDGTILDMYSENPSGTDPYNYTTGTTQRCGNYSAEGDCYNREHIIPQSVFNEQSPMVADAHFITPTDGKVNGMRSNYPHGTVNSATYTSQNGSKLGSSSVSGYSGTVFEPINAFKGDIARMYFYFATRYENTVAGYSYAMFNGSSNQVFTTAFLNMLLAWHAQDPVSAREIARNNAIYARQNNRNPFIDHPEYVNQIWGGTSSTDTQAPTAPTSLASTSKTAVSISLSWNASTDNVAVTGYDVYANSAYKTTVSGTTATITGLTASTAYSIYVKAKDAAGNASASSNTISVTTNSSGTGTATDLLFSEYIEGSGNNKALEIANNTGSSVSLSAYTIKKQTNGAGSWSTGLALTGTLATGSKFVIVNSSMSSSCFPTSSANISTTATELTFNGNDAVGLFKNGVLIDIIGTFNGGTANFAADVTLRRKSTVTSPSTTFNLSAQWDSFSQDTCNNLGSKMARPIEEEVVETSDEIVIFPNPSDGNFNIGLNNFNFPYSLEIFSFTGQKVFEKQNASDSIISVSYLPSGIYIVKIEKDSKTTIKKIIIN

Tests used:
[1] = biological target: Twin-strep–SprA lacking its N terminus, sprA(Δnterm) (Flavobacterium johnsoniae) (UniProt Q5I6C7); experiment: cryo-EM structure; substrate-bound PorV complexes trapped in vivo: Twin-strep–SprA complexes from ΔgldL peak II, ΔgldLΔsprE, ΔgldL sprA(Δnterm), ΔgldLΔskpA, ΔsprE and ΔgldM backgrounds, in LMNG
[2] = biological target: PorV (Flavobacterium johnsoniae (endogenous)); experiment: cryo-EM structure; Extended Translocon, peak I of Twin-strep–SprA complexes from a ΔgldL background (also seen at 4.3 Å from ΔgldM peak I); assembled in vivo, in LMNG
[3] = biological target: Twin-strep-tagged SprA (Flavobacterium johnsoniae); experiment: as above
[4] = biological target: PorV (Flavobacterium johnsoniae (endogenous)); experiment: cryo-EM structure; substrate-bound PorV complexes trapped in vivo: Twin-strep–SprA complexes from ΔgldL peak II, ΔgldLΔsprE, ΔgldL sprA(Δnterm), ΔgldLΔskpA, ΔsprE and ΔgldM backgrounds, in LMNG
[5] = biological target: Twin-strep-tagged SprA (Flavobacterium johnsoniae); experiment: as above
[6] = biological target: Twin-strep–SprA lacking its N terminus, sprA(Δnterm) (Flavobacterium johnsoniae) (UniProt Q5I6C7); experiment: as above; remark: listed apart in the source

Measured: binding

NucA (Fjoh_4723) (from UniProt A5FAQ0)
binds: [1]

B1: RemZ (Fjoh_0803) (protein, UniProt A5FLT3 1-1114)
chain: MDVQAWGGGGAGGGASGAVLDGRAAAGGGGGAYARSNITVAAGATLNASVAGTTTNALVSGAAVNGAAGGSSTILGFETSILALGGGGGGANNAGGTPAGGAGGSAASSVGNVSKLDGAAGGNGVTGAIGLLTVSGAGGTAGGGGGAGGAGVASVALGNGPGNAGTAPGGGGSGAMQSLLGGAQIGGSGAAGRVIITYTCPTYSITGISAANVCNSVGTTSVVTLTSSGGGLPIGPYVVTYNRSNPSGTGLTAIMNVTTPGTGTFTAAGLNVIGTSNITVTNLTSAACSSNISTNNVASLTVFAATVGGTLAGTATVCSGATSGTLTLSGQTGSIIKWESSVSPFTVWTTIPNTTNTYTSGALTETSQFRAVIQNGNCAVVNSSIATITVNPLPQGSLSANGPFCVTGSGQLTFTATAGTGPYTIVYKENGGADRTAANISSGVAFPTFTTPVTTTTVYTLVSVTGANTCSRSSGFTNNTATITVNSRIATPGFGTVTQPDCVTSTGSVVLTGLPAGSWTITQSGTASQTYNSSGTTYTISNLAVGNYTFTVQDAANCPSLATSTLTLIAPVVNIWNGTSWSKGSPPISTDVVRFSGNYSTTGNLSGCSLIVDSGFTVTVNSNHTLTISNAVTNNGGQLIFENNSSLLQTNNVTNVGNITYKRITPPVRRYDLTYWSSPITRTPPFTLYDLSPGTLADKYYSYDPVAGWVISFNGTQQMVPGRGYVVRAPQTNDLNTGANYLGAFVGVPNNGPISVSLGTAEAFQLLGNPYPSAIYADQFIANNSANLYGTLYFWTHNSLPSSSTPGGAQYNYDNNDYAVYNLSGSIIVGGMTGQGATTPGNQSAPLGYIAAGQGFFVVSKTAGNAVFTNSMRVAANNTQFYKTNKSAIERHRVWINLTNTQGAFKQLLIGYIEGATNFWDHNYDAITADANPHLDFYSINEGQNLVIQGRSLPFNESDVVPLGYRSAIAGEFSISLDHADGDLTNHAVYLEDKLTNTLHNLQTSNYTFNTAIGTFSDRFVIRYTTATLGTDDFENQTNSFYVSVKDKTIKLNSTEDVMREVSIFDISGKLLYNNKKVENTEFQVSNFQSGNQVLIVKVTLDNGNIITKKIVFN
not listed: [1]
binds: all other assays above

Where two headings read alike, the source gives them in different places. No constants are given. Whether binding was seen depends on the method and setting. Binding can be weak; no strength is given.
